Assay results as given in the supplement of paper PMC12823440, “Inhibitors supercharge kinase turnover through native proteolytic circuits” (Nature, 2025).
Counter-ions that a name gives are not always drawn. Some of the results follow. Hit calls seldom repeat between salt and free forms of one compound.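 In K562 cells expressing nanoluciferase-fused kinases, luminescence was recorded at 4 h intervals between 2 and 18 h, normalized as percent of control with DMSO at 100% and a positive control at 0%. A significant (2 sigma) signal drop marks a time point as decreased. The authors' rule for a hit is not shown and takes in more than the number of time points.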

Sequences of proteins named here, by UniProt entry; tags and fusion partners are left off.
UniProt Q14289, whole entry, looked up: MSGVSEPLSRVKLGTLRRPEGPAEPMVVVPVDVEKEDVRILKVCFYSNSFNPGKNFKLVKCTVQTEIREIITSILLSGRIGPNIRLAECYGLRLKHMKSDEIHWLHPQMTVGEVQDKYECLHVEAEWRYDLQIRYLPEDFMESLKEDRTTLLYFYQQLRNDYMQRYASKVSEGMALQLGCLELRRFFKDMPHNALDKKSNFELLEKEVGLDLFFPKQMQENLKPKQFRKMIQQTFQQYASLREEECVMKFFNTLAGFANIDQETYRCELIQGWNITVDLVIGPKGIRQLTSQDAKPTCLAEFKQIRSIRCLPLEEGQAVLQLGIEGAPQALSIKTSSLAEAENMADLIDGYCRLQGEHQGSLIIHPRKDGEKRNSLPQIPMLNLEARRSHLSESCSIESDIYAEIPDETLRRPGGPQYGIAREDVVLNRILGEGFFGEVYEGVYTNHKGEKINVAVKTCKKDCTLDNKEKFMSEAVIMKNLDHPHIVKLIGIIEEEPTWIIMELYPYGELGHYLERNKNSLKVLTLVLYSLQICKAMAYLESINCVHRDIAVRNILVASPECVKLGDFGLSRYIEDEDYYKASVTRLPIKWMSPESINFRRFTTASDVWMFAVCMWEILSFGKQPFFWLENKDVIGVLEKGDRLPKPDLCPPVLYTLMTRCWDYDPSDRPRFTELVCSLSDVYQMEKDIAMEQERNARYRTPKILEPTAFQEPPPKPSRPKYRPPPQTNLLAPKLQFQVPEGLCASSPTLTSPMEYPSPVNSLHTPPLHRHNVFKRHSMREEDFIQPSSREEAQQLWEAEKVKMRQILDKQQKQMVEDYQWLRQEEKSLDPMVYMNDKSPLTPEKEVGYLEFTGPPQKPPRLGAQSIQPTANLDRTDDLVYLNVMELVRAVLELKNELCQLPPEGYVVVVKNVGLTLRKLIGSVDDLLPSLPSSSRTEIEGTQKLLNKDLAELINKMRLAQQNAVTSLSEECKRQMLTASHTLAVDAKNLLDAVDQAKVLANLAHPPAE

These compounds were tested against PTK2B (UniProt Q14289) (assay: number of time points (of 5) at which kinase-Nluc abundance scored as decreased, DMSO-normalised (count); higher = more persistent destabilization). Conditions: K562; 2-18 h.

| Compound | number of time points |
| --- | --- |
| COc1ccc(Cn2cc(C(=O)N=Nc3c(O)[nH]c4c(C)cccc34)nn2)cc1 [MARK4 inhibitor 1] (10 µM) | 0 |
| COc1cc([N+](=O)[O-])ccc1S(=O)(=O)N1C[C@@H](CN2CCN(c3ccccn3)CC2)[C@H](c2cccc(F)c2)C1 (relative stereo) (10 µM) | 0 |
| Cc1cc(Nc2nc(N[C@@H](C)c3ccc(F)cc3)c(C#N)cc2F)n[nH]1 (10 µM) | 0 |
| Cc1ccc(S(=O)(=O)/C=C/C#N)cc1 (10 µM) | 0 |
| Cc1c(CN2CCN(S(C)(=O)=O)CC2)sc2c(N3CCOCC3)nc(-c3cnc(N)nc3)nc12 (2.5 µM) | 0 |
| COc1ccc(-c2ccc3c(N4CCOC[C@@H]4C)nc(N4CCOC[C@@H]4C)nc3n2)cc1CO (2.5 µM) | 4 |
| CCN(CC)S(=O)(=O)c1ccc(OC)c(N2CCN(C(=O)c3ccc(F)cc3C(F)(F)F)CC2)c1 (10 µM) | 0 |
| CC1CN(C(=O)Nc2ccc(Cl)c(Cl)c2)C(=Nc2ccc(F)cc2)S1 (centres undefined) (10 µM) | 0 |
| COCCO[C@@H]1[C@H](O)[C@@H](CO)O[C@H]1n1cnc2c(=O)[nH]c(N)nc21 [2′-O-(2-Methoxyethyl)guanosine] (10 µM) | 0 |
| COc1cc(F)c(F)c(Nc2ccc(I)cc2F)c1NS(=O)(=O)C1(C[C@H](O)CO)CC1 [Refametinib] (10 µM) | 0 |
| CC(C)=CC[C@H](O)C1=CC(=O)c2c(O)ccc(O)c2C1=O [(-)-Alkannin] (2.5 µM) | 0 |
| C[C@@]1(O)CCC[C@H]1n1c(=O)c(C(F)F)cc2cnc(NC3CCN(S(C)(=O)=O)CC3)nc21 (2.5 µM) | 0 |
| CS(=O)(=O)c1ccc(-c2noc(C(F)(F)F)c2-c2ccccc2)cc1 (10 µM) | 0 |
| COc1ccc2[nH]cc(/C=C3\C(=O)Nc4ccc(NC(=O)CCN5CCCCC5)cc43)c2c1 (2.5 µM) | 0 |
| O=C(Nc1ccc(F)cc1F)[C@H](NC(=S)Nc1cc(C(F)(F)F)cc(C(F)(F)F)c1)c1ccccc1 (2.5 µM) | 0 |
| CC(C)CN[C@H]1CS(=O)(=O)C[C@@H]1S(=O)(=O)c1ccc(Cl)cc1 (10 µM) | 0 |
| COc1ccc(C2CC(c3ccccc3)=NN2c2ccc(S(N)(=O)=O)cc2)cc1 (centres undefined) (10 µM) | 0 |
| CC/C=C\C/C=C\C/C=C\CCCCCCCC(=O)O [α-Linolenic acid] (10 µM) | 0 |
| O=C(Nc1nc2ccccc2[nH]1)c1cccc(-n2cccc2)c1 (10 µM) | 0 |
| COc1ncc(-c2nc(N3CCOCC3)nc3c(CN4CCC(C(C)(C)O)CC4)cc(F)cc23)cc1NS(C)(=O)=O [Linperlisib] (10 µM) | 0 |

A different layout for two compounds above:
CC(C)CN[C@H]1CS(=O)(=O)C[C@@H]1S(=O)(=O)c1ccc(Cl)cc1 (10 µM)
  number of time points: 0
COc1ccc(C2CC(c3ccccc3)=NN2c2ccc(S(N)(=O)=O)cc2)cc1 (centres undefined) (10 µM)
  number of time points: 0

(cont.)

| Compound | number of time points |
| --- | --- |
| COc1ccc([C@H]2c3[nH]c4ccc(Cl)cc4c3CCN2C(=O)Oc2ccc(Cl)cc2)cc1 (2.5 µM) | 0 |
| COc1c(NC(=O)C(=O)c2ccc(OCCN3CCOCC3)c3ccccc23)cc(C(C)(C)C)cc1NS(C)(=O)=O (2.5 µM) | 0 |
| COc1ccc([C@@H]2CC(=O)c3c(O)cc(O)cc3O2)cc1O [Hesperetin] (10 µM) | 0 |
| N#Cc1cccc(-c2c[nH]c3ncnc(N4CCOCC4)c23)c1 (10 µM) | 0 |
| C/C(=C1/C(=O)Nc2ccc(NC(N)=O)cc21)c1ccc[nH]1 (10 µM) | 0 |
| Nc1ncnc2c1c(-c1ccc(Oc3ccccc3)cc1)nn2C1CCNCC1 [N-piperidine Ibrutinib (hydrochloride)] (10 µM) | 0 |
| N#Cc1ccc2ncnc(NC3CCC(N4CCOCC4)CC3)c2c1 (centres undefined) (10 µM) | 0 |
| CC(=O)c1c(C)c2cnc(Nc3ccc(N4CCN(CCCCNC(=O)COc5cccc6c5C(=O)N(C5CCC(=O)NC5=O)C6=O)CC4)cn3)nc2n(C2CCCC2)c1=O (centres undefined) (10 µM) | 0 |
| CC(C)=CC(=O)CCC(=O)N1CCN(Cc2cc3nc(-c4cccc5[nH]ncc45)nc(N4CCOCC4)c3s2)CC1 (10 µM) | 0 |
| Cc1ccc(S(=O)(=O)Nc2ccccc2C=Nc2ccccc2NS(=O)(=O)c2ccc(C)cc2)cc1 (10 µM) | 0 |
| NCCN1CCN(C/C=C/C(=O)N2CCC[C@@H](n3nc(-c4ccc(Oc5ccccc5)cc4)c4c(N)ncnc43)C2)CC1 [Ibrutinib-MPEA] (10 µM) | 0 |
| O=C(CNC(=O)c1ccc(-c2ccccc2)cc1)NC1CCCc2ccccc21 (centres undefined) [TAO Kinase inhibitor 1] (10 µM) | 0 |
| CC(C)CN(CC(=O)N1CCN(CC(OCc2ccc3ccccc3c2)c2ccc(Cl)cc2Cl)CC1)CC(C)C (centres undefined) [LYN-1604 (dihydrochloride)] (2.5 µM) | 0 |
| CO[C@H]1C[C@@H]2CC[C@@H](C)[C@@](O)(O2)C(=O)C(=O)N2CCCC[C@H]2C(=O)O[C@H]([C@H](C)C[C@@H]2CC[C@@H](O)[C@H](OC)C2)CC(=O)[C@H](C)/C=C(\C)[C@@H](O)[C@@H](OC)C(=O)[C@H](C)C[C@H](C)/C=C/C=C/C=C/1C [Rapamycin] (10 µM) | 0 |
| Cc1ccc(Nc2cc(-c3cccc(N4C(=O)c5ccccc5C4=O)c3)ncn2)cc1NS(C)(=O)=O (10 µM) | 0 |
| Nc1cc(Nc2ccc(S(N)(=O)=O)cc2)ncn1 (10 µM) | 0 |
| CCOc1cc(C(=O)N2CCC(N3CCN(C)CC3)CC2)ccc1Nc1ncc2c(n1)N(C1CCCC1)c1ccccc1C(=O)N2C (10 µM) | 0 |
| COCCOc1ccc(-c2cn(-c3ccccc3)c3nc[nH]c(=O)c23)cc1 (10 µM) | 0 |
| Cc1cc(O)c(C(C)C)cc1N=O [Poloxime] (10 µM) | 0 |
